Laboratory results from PMC7078350.
Results are given in words; binding and its absence hold for the method and conditions named. Sequences can lack the tags named with a protein.

Sequences of proteins named here, by UniProt entry; tags and fusion partners are left off.
UniProt Q2LAE1: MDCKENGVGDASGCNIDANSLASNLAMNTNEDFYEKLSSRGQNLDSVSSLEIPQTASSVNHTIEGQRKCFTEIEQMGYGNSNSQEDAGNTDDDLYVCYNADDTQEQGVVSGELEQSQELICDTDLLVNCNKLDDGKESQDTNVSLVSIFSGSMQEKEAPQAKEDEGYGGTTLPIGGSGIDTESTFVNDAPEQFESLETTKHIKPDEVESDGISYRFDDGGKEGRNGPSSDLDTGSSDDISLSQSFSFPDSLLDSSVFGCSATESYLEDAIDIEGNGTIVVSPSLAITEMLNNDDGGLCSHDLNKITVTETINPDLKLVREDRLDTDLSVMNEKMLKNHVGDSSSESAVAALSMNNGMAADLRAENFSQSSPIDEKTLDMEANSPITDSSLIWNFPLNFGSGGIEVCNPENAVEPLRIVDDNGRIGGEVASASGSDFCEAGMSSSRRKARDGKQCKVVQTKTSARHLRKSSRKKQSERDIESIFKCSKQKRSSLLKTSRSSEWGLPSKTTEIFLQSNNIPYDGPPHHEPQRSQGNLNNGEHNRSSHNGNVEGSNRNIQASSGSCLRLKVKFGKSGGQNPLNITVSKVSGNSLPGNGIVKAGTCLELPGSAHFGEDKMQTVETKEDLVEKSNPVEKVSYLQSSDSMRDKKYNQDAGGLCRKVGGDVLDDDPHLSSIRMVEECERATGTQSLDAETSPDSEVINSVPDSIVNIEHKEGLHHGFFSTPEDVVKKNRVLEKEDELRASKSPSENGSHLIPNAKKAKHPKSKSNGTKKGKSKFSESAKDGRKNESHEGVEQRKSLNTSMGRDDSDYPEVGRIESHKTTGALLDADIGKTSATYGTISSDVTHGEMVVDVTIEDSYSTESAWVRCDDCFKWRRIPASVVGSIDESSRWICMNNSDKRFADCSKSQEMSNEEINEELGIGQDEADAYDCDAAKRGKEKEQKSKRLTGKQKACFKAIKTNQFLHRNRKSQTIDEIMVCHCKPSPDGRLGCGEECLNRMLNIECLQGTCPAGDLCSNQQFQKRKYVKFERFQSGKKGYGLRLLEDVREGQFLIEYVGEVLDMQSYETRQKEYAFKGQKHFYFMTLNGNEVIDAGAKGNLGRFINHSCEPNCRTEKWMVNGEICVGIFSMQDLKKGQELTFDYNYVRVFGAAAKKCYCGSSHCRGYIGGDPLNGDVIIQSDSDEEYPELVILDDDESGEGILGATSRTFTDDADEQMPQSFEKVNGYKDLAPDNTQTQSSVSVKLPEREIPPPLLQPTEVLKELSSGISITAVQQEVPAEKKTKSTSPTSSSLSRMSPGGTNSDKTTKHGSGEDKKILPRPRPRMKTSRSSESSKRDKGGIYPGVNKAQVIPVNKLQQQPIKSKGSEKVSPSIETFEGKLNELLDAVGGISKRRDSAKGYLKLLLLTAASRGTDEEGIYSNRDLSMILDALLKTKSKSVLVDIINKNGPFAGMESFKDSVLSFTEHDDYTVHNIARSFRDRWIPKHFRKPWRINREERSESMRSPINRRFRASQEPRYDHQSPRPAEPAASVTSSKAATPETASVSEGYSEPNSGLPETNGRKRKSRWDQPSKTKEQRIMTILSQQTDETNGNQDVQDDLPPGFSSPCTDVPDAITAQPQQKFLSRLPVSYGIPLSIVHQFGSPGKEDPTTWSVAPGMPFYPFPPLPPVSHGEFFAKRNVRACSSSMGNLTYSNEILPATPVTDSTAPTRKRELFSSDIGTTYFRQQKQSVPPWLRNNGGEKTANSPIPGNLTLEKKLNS

Target: T1, Protein kinase Kin28 fused to the Gal4 DNA binding domain (UniProt P06242)
T1 sequence: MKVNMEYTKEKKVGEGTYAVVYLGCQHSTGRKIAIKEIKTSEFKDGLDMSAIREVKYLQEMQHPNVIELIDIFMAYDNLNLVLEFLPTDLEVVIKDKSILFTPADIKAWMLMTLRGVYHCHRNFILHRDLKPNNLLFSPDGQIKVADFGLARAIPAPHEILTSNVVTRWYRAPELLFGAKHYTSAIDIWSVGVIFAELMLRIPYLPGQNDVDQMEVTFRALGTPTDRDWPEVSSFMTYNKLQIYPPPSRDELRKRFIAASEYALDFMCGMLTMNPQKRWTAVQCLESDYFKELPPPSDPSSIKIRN
Experiment: two-hybrid; tethered yeast two-hybrid in strain AH109; SDG8 or SDG26 on the Gal4 activation domain, Kin28, CTD-Kin28 or CTD-mKin28 on the Gal4 DNA binding domain; growth 4 days at 30°C on SD-LWH + 25 mM 3AT and SD-LWAH, SD-LW as control

SDG8, full length, fused to the Gal4 activation domain (from UniProt Q2LAE1 1-1759) (enzyme)
binding: no binding
